Assay results as given in paper PMC7448276.
No constants are given. Whether binding was seen depends on the method and setting. Binding seen in cells or lysates may run through a third protein. A result given as binding can be weak or reduced; the word gives no strength.

Sequences of proteins named here, by UniProt entry; tags and fusion partners are left off. A change or cut given only in a name is not applied to a line headed by its entry.
UniProt O05574: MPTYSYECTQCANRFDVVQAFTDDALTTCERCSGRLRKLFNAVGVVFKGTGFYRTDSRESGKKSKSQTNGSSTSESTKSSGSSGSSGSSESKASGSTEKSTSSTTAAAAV
UniProt P9WMJ9: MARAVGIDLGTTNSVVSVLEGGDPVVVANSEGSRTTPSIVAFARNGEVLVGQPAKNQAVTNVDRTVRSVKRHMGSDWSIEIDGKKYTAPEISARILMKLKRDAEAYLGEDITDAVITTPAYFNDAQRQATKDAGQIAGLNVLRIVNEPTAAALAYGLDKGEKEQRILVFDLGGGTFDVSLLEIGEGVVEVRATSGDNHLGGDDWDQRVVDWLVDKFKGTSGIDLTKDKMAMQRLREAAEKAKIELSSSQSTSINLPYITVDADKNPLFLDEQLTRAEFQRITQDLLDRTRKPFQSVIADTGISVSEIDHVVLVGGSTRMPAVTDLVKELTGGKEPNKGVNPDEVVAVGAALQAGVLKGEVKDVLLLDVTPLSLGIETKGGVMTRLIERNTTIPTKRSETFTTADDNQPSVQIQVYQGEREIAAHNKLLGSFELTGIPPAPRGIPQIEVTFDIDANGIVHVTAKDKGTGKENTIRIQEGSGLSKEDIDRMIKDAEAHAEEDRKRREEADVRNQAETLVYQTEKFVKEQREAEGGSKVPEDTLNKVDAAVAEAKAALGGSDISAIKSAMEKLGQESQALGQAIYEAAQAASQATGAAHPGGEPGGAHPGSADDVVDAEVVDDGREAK

Molecular target: Ruc with a C-terminal hexahistidine-FLAG tandem affinity purification tag (RucTAP) (M. tuberculosis) (UniProt O05574)
Assay: pull-down

M. tuberculosis DnaK (from UniProt P9WMJ9 1-625)
binding: binds
